Some of the results follow.
Assays:
Test in all cases: log2 fold change, soluble protein after heating vs DMSO (PISA); higher = thermal stabilisation; K562 cells, 10 uM, 30 min; active = over 0.2 and 3.5 SD of the protein, either way, in both replicates (recomputed)
[1] = compound: CS(=O)(=O)c1ccc(-c2cnc(N)c(C(=O)Nc3ccccc3)n2)cc1
Method in brief: (§1)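 K562 cells at 2×10^6 cells/mL were treated for 30 min with 10 μM compound, and aliquots were heated for 3 min over 48°C-58°C before pooling. Extraction used PBS with 0.5% NP-40 at 4°C, and soluble protein was the supernatant after 21,000xg for 90 min, measured by TMTpro 16plex LC-MS/MS with channel sums equalised. Thermal stability values, relative to control samples and from duplicates, are log2 fold changes.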

Amino acid sequences for entries named in this document (tags omitted). A change or cut given only in a name is not applied to a line headed by its entry.
UniProt O76075: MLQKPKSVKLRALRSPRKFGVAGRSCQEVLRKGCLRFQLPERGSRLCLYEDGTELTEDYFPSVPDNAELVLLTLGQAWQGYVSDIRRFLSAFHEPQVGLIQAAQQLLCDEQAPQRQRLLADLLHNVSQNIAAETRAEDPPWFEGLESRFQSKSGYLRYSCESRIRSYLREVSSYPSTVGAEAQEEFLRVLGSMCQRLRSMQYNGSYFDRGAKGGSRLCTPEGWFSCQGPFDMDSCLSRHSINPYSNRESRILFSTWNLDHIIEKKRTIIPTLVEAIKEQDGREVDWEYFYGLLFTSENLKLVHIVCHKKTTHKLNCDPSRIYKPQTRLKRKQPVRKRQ
UniProt Q6P3S1: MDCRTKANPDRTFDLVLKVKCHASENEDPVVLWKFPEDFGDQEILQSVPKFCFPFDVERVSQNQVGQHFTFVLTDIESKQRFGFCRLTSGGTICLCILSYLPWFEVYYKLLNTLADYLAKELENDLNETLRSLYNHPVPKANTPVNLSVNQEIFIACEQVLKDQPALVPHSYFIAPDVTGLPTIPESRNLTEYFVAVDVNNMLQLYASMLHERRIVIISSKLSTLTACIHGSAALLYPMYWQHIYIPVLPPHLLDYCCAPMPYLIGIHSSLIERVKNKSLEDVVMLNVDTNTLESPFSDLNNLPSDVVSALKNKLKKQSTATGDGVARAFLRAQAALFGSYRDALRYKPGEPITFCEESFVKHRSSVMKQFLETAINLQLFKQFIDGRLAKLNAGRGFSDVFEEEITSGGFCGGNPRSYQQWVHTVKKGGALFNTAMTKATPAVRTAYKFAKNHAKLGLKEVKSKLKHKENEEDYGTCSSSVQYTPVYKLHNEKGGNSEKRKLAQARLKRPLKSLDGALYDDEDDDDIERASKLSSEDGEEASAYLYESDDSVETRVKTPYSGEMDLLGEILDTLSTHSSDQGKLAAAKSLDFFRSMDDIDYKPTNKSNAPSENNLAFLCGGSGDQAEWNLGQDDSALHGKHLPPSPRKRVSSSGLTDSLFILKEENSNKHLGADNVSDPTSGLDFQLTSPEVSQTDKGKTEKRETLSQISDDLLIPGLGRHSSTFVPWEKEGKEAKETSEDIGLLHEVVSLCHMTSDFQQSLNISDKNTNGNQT
UniProt Q8TE73: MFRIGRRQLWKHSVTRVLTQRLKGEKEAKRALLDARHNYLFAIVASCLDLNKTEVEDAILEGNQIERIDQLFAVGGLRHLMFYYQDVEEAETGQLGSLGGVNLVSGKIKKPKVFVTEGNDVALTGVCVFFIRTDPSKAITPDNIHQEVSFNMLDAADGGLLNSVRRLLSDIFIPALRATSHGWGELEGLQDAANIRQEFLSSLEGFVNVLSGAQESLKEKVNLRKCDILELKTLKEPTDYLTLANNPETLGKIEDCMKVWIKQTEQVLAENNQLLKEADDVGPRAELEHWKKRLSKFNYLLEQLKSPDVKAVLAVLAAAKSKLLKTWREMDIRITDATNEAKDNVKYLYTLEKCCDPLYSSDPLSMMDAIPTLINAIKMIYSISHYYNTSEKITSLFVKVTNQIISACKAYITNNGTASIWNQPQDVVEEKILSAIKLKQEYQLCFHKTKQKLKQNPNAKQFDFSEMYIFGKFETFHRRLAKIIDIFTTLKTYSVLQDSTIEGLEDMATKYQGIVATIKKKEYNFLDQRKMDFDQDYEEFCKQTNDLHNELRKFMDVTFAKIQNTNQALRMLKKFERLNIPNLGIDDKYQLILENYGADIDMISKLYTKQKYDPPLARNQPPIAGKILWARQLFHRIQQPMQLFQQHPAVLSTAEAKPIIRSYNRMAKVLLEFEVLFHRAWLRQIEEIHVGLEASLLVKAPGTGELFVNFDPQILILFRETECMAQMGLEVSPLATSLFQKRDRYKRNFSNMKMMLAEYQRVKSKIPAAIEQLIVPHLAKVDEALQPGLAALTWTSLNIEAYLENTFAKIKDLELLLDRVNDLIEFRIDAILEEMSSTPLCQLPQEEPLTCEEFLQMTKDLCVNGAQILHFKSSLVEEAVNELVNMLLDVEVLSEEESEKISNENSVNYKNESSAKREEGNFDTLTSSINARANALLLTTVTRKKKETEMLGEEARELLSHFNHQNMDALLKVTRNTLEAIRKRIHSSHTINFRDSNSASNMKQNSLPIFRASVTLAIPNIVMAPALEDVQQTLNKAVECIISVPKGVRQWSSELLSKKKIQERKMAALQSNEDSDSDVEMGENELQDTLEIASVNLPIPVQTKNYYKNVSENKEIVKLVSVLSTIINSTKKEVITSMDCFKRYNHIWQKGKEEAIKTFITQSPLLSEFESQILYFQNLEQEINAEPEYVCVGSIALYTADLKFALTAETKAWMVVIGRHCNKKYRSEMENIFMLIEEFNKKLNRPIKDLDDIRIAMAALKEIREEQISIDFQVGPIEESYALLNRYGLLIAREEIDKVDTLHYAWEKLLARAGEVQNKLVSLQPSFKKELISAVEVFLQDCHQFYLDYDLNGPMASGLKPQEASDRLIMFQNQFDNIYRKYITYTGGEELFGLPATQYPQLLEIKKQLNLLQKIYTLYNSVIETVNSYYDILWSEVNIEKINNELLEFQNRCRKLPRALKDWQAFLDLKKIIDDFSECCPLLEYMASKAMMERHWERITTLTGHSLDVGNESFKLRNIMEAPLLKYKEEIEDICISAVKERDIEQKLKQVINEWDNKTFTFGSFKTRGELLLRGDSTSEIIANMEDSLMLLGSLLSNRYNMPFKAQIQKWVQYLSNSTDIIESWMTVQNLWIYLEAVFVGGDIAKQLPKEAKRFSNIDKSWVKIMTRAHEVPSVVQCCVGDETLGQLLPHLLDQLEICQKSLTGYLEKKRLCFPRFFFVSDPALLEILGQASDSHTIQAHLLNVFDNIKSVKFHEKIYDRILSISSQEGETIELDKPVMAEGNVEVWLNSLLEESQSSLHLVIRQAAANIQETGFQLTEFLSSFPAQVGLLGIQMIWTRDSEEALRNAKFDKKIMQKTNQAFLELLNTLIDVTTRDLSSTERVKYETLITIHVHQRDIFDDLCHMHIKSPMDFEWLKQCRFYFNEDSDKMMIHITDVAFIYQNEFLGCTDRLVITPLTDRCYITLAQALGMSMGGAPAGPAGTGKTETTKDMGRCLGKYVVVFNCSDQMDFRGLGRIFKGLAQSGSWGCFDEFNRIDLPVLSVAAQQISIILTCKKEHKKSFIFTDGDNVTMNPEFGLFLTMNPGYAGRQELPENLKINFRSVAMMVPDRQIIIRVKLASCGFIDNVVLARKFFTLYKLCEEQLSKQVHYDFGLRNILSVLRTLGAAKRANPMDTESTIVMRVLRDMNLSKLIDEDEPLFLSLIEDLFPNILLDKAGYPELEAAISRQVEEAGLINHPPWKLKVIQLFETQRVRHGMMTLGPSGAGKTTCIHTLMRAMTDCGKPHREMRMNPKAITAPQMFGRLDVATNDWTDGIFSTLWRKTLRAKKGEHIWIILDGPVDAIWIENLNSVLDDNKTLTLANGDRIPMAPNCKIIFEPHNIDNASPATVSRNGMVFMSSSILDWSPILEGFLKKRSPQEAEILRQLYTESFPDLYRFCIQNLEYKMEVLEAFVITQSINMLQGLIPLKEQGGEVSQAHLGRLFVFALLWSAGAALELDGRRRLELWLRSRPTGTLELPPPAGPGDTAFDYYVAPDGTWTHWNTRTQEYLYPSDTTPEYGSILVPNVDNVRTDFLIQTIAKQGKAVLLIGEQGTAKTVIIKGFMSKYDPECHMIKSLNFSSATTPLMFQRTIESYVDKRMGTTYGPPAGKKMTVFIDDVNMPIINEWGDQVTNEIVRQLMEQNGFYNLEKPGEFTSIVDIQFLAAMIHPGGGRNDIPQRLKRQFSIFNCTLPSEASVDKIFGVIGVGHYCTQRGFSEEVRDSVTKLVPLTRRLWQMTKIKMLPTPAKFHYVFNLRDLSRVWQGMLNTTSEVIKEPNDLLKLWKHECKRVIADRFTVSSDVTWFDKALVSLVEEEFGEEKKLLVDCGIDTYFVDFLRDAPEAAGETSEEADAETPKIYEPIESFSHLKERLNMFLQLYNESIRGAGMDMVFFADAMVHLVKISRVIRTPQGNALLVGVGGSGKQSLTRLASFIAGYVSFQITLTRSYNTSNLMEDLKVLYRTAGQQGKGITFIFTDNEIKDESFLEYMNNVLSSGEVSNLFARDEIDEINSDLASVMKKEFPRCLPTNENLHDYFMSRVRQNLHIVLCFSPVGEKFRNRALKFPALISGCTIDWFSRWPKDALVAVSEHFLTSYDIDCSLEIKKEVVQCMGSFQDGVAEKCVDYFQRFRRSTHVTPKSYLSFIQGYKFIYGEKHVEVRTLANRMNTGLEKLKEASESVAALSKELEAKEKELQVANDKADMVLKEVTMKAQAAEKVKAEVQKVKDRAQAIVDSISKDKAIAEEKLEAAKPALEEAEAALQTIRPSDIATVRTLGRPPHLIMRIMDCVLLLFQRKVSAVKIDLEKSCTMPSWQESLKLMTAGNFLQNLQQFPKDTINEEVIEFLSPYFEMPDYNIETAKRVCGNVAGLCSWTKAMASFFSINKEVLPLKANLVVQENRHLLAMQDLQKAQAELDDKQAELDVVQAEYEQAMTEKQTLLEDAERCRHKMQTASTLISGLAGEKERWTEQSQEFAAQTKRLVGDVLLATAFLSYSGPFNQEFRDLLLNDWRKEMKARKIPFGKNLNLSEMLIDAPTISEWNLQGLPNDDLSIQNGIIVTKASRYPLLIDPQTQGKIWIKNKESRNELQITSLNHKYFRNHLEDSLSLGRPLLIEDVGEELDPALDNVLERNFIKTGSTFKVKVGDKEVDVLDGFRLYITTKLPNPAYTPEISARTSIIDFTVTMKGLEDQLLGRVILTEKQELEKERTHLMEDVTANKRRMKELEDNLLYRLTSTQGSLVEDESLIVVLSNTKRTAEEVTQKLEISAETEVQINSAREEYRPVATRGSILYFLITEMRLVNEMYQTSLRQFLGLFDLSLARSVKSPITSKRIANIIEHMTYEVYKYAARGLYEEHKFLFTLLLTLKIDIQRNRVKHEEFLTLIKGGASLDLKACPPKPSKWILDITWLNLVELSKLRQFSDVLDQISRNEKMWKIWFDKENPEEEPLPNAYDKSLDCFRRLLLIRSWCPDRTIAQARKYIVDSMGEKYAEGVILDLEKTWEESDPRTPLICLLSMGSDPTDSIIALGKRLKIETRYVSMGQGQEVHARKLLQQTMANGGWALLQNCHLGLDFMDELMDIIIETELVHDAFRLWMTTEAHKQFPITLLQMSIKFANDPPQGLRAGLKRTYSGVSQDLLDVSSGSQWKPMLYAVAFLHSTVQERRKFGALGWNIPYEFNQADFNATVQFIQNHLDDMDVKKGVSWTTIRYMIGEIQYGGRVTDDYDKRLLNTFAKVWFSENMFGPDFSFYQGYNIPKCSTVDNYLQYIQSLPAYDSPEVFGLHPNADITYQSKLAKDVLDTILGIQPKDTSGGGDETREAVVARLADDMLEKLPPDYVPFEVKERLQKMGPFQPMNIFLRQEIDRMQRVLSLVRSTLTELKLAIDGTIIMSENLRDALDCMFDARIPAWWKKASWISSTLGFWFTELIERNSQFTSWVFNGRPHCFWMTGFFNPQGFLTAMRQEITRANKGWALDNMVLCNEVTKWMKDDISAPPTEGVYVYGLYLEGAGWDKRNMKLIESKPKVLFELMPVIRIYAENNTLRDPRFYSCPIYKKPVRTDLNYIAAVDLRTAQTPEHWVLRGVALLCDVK
UniProt Q9NVP1: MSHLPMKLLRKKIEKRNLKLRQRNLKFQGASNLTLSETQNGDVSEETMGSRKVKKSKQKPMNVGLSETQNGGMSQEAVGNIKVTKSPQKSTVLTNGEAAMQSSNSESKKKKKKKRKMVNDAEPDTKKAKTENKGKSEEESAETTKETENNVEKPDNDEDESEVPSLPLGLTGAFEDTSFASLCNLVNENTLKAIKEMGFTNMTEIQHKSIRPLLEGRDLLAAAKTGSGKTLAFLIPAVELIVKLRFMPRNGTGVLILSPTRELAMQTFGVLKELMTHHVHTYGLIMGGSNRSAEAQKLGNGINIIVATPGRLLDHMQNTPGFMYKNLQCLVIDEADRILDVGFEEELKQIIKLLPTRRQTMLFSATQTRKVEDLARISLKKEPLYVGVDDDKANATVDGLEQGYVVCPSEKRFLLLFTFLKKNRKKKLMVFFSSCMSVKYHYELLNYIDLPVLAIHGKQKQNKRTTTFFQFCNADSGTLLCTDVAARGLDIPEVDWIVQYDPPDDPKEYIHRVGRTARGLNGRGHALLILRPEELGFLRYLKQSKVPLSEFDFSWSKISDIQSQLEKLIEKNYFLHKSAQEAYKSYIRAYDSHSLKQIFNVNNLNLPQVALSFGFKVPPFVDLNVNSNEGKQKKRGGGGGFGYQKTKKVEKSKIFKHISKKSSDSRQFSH

crizotinib = compound: C[C@@H](Oc1cc(-c2cnn(C3CCNCC3)c2)cnc1N)c1c(Cl)ccc(F)c1Cl [crizotinib]
Method in brief: as §1

duvelisib = compound: C[C@H](Nc1ncnc2nc[nH]c12)c1cc2cccc(Cl)c2c(=O)n1-c1ccccc1 [duvelisib]
Method in brief: as §1

gandotinib = compound: Cc1cc(Nc2cc(CN3CCOCC3)c3nc(C)c(Cc4ccc(Cl)cc4F)n3n2)n[nH]1 [gandotinib]
Method in brief: as §1

[2] = compound: Cc1cc(SCc2sc(-c3ccc(C(F)(F)F)cc3)nc2C)ccc1OCC(=O)O
Method in brief: as §1

doramapimod = compound: Cc1ccc(-n2nc(C(C)(C)C)cc2NC(=O)Nc2ccc(OCCN3CCOCC3)c3ccccc23)cc1 [doramapimod]
Method in brief: as §1

ispinesib = compound: Cc1ccc(C(=O)N(CCCN)[C@@H](c2nc3cc(Cl)ccc3c(=O)n2Cc2ccccc2)C(C)C)cc1 [ispinesib]
Method in brief: as §1

bafetinib = compound: Cc1ccc(NC(=O)c2ccc(CN3CC[C@H](N(C)C)C3)c(C(F)(F)F)c2)cc1Nc1nccc(-c2cncnc2)n1 [bafetinib]
Method in brief: as §1

[3] = compound: Cc1cccc(CC(=O)N2CCc3c2ccc(-c2cn(C)c4ncnc(N)c24)c3F)n1
Method in brief: as §1

dasatinib = compound: Cc1nc(Nc2ncc(C(=O)Nc3c(C)cccc3Cl)s2)cc(N2CCN(CCO)CC2)n1 [dasatinib]
Method in brief: as §1

[4] = compound: Cn1cc(-c2ccc3nnc(C(F)(F)c4ccc5ncccc5c4)n3n2)cn1
Method in brief: as §1

tipifarnib = compound: Cn1cncc1[C@@](N)(c1ccc(Cl)cc1)c1ccc2c(c1)c(-c1cccc(Cl)c1)cc(=O)n2C [tipifarnib]
Method in brief: as §1

[5] = compound: C[C@@H]1COCCN1C2=NC(=NC(=C2)C3(CC3)S(=O)(=O)C)C4=C5C=CNC5=CC=C4
Method in brief: as §1

[6] = compound: C[C@H](C1=CC=C(C=C1)C(=O)NC2=C3C=CNC3=NC=C2)N
Method in brief: as §1

nilotinib = compound: Cc1cn(-c2cc(NC(=O)c3ccc(C)c(Nc4nccc(-c5cccnc5)n4)c3)cc(C(F)(F)F)c2)cn1 [nilotinib]
Method in brief: as §1

[7] = compound: Cc1nc(Nc2n[nH]c3c2CN(C(=O)N[C@H](CN(C)C)c2ccccc2)C3(C)C)c2sccc2n1
Method in brief: as §1

[8] = compound: Cc1ncc(-c2ccnc(Nc3ccc(S(C)(=O)=O)cc3)n2)n1C(C)C
Method in brief: as §1

[9] = compound: Cn1cc(-c2ccc3c(c2)CCN3C(=O)Cc2cccc(C(F)(F)F)c2)c2c(N)ncnc21
Method in brief: as §1

mubritinib = compound: FC(F)(F)c1ccc(/C=C/c2nc(COc3ccc(CCCCn4ccnn4)cc3)co2)cc1 [mubritinib]
Method in brief: as §1

tozasertib = compound: Cc1cc(Nc2cc(N3CCN(C)CC3)nc(Sc3ccc(NC(=O)C4CC4)cc3)n2)n[nH]1 [tozasertib]
Method in brief: as §1

Target	log2 fold change [1]	log2 fold change (crizotinib)	log2 fold change (duvelisib)	log2 fold change (gandotinib)	log2 fold change [2]	log2 fold change (doramapimod)	log2 fold change (ispinesib)	log2 fold change (bafetinib)	log2 fold change [3]	log2 fold change (dasatinib)	log2 fold change [4]	log2 fold change (tipifarnib)	log2 fold change [5]	log2 fold change [6]	log2 fold change (nilotinib)	log2 fold change [7]	log2 fold change [8]	log2 fold change [9]	log2 fold change (mubritinib)	log2 fold change (tozasertib)
DDHD1 (UniProt Q8NEL9)	inactive: -0.047	inactive: 0.006	inactive: 0.196	inactive: 0.012	inactive: 0.424	inactive: 0.068	inactive: -0.096	inactive: -0.197	inactive: -0.147	inactive: -0.647	inactive: 0.168	inactive: 0.119	–	–	–	–	–	–	–	–
DHRS3 (UniProt O75911)	inactive: 0.083	inactive: 0.093	–	inactive: -0.027	inactive: -0.049	inactive: -0.037	inactive: 0.015	inactive: 0.027	inactive: 0.017	inactive: 0.188	inactive: 0.164	inactive: 0.012	inactive: 0.115	inactive: 0.069	inactive: 0.101	inactive: -0.031	inactive: -0.025	active: 0.323	inactive: 0.081	–
DDX4 (UniProt Q9NQI0)	inactive: 0	inactive: 0.018	–	inactive: 0.112	inactive: -0.232	inactive: -0.021	inactive: -0.529	inactive: 0.244	inactive: -0.511	inactive: 0.107	inactive: 0.052	inactive: 0.268	inactive: 0.013	inactive: 0.544	inactive: -0.172	inactive: -0.187	inactive: -0.068	inactive: -0.217	inactive: -0.484	–
DDB1 (UniProt Q16531)	inactive: 0.005	inactive: 0.033	–	inactive: -0.028	inactive: -0.037	inactive: -0.033	inactive: 0.009	inactive: -0.019	inactive: -0.025	inactive: 0.046	inactive: -0.001	inactive: -0.014	inactive: 0.026	inactive: -0.039	inactive: -0.004	inactive: 0.027	inactive: -0.016	inactive: 0.011	inactive: 0.023	–
DHX16 (UniProt O60231)	inactive: 0.023	inactive: -0.013	–	inactive: -0.06	inactive: 0.053	inactive: -0.018	inactive: -0.01	inactive: 0.001	inactive: 0.044	inactive: -0.095	inactive: 0.002	inactive: -0.04	inactive: 0.182	inactive: -0.03	inactive: -0.031	inactive: 0.019	inactive: -0.006	inactive: 0.059	inactive: 0.147	–
DIAPH1 (UniProt O60610)	inactive: 0.047	inactive: -0.152	–	inactive: -0.063	inactive: 0.125	inactive: 0.135	inactive: -0.089	inactive: 0.088	inactive: 0.057	inactive: -0.055	inactive: -0.035	inactive: -0.077	inactive: -0.054	inactive: 0.168	inactive: -0.011	inactive: -0.197	inactive: 0.077	inactive: -0.083	inactive: 0.039	–
DDB2 (UniProt Q92466)	inactive: -0.037	–	inactive: -0.021	inactive: 0.151	inactive: -0.073	–	inactive: -0.048	inactive: -0.343	inactive: -0.066	inactive: 0.056	inactive: -0.064	inactive: 0.156	inactive: -0.174	inactive: 0.059	inactive: 0.003	inactive: 0.057	inactive: 0.007	inactive: 0.01	inactive: 0.054	inactive: 0.012
DDX39A (UniProt O00148)	inactive: 0.062	inactive: -0.082	–	inactive: -0.009	inactive: 0.05	inactive: -0.069	inactive: -0.064	inactive: 0.001	inactive: 0.014	inactive: -0.134	inactive: -0.007	inactive: 0.079	inactive: 0.079	inactive: 0.002	inactive: -0.017	active: -0.278	inactive: -0.218	inactive: -0.018	inactive: -0.182	–
DHCR24 (UniProt Q15392)	inactive: 0.229	inactive: 0.428	–	inactive: -0.025	inactive: -0.063	active: 0.982	inactive: -0.053	active: 1.39	inactive: -0.001	inactive: 0.127	inactive: 0.043	inactive: -0.006	inactive: 0.076	inactive: 0.056	inactive: -0.03	inactive: 0.025	inactive: 0.577	inactive: 0.292	inactive: 0.47	–
DFFB (UniProt O76075)	inactive: 0.018	inactive: 0.072	–	inactive: -0.017	inactive: -0.012	inactive: -0.021	inactive: -0.006	inactive: 0.042	inactive: -0.032	inactive: -0.057	inactive: 0.002	inactive: -0.072	inactive: 0.012	inactive: 0.106	inactive: -0.047	inactive: -0.156	inactive: 0.056	inactive: -0.053	inactive: 0.019	–
DDX46 (UniProt Q7L014)	inactive: 0.12	inactive: 0.1	–	inactive: -0.144	inactive: 0.235	inactive: -0.087	inactive: 0.197	inactive: 0.196	inactive: 0.094	inactive: -0.084	inactive: 0.102	inactive: -0.113	inactive: 0.185	inactive: -0.025	inactive: 0.271	active: -1.44	inactive: 0.1	inactive: 0.104	active: 0.604	–
DMXL2 isoform 3 (UniProt Q8TDJ6)	inactive: 0.023	–	inactive: 0.077	inactive: -0.27	inactive: 0.103	–	inactive: -0.035	inactive: -0.122	inactive: -0.23	inactive: -0.079	inactive: 0.238	–	inactive: -0.139	inactive: 0.185	–	–	–	inactive: -0.164	–	inactive: -0.1
DENND1B (UniProt Q6P3S1)	inactive: -0.05	inactive: -0.028	inactive: -0.008	–	inactive: 0.005	inactive: -0.102	–	inactive: 0.001	–	inactive: 0.037	–	inactive: 0.029	inactive: 0.05	inactive: 0.024	inactive: -0.365	inactive: -0.124	inactive: -0.039	inactive: -0.005	inactive: 0.038	–
DECR2 (UniProt Q9NUI1)	inactive: -0.027	inactive: -0.089	inactive: 0.023	inactive: 0.049	inactive: 0.097	inactive: 0.05	–	inactive: -0.04	inactive: -0.116	inactive: -0.03	–	inactive: 0.056	inactive: 0.062	–	inactive: -0.095	inactive: 0.012	inactive: -0.07	–	inactive: -0.14	inactive: -0.071
DHRS7B (UniProt Q6IAN0)	inactive: 0.066	inactive: 0.194	–	inactive: -0.232	inactive: 0.105	inactive: -0.006	active: 0.367	inactive: 0.001	inactive: 0.213	inactive: -0.066	inactive: -0.113	inactive: 0.008	inactive: 0.003	inactive: -0.08	inactive: 0.114	inactive: 0.01	inactive: 0.056	inactive: 0.047	inactive: -0.023	–
DNAH5 (UniProt Q8TE73)	inactive: 0.049	inactive: 0.145	–	inactive: 0.013	inactive: -0.052	inactive: -0.031	inactive: 0.057	inactive: -0.065	inactive: -0.084	inactive: 0.085	inactive: -0.06	inactive: 0.267	inactive: -0.007	inactive: -0.076	inactive: -0.006	inactive: 0.015	inactive: -0.015	inactive: 0	inactive: 0.032	–
DDX41 (UniProt Q9UJV9)	inactive: 0.027	–	inactive: -0.052	inactive: -0.066	inactive: -0.044	–	inactive: -0.069	inactive: -0.16	inactive: 0.01	inactive: -0.035	inactive: 0.006	inactive: 0.119	inactive: -0.231	inactive: -0.212	inactive: -0.065	inactive: -0.055	inactive: -0.003	inactive: -0.099	inactive: -0.033	inactive: 0
DHCR7 (UniProt Q9UBM7)	inactive: -0.003	inactive: 0.192	–	inactive: -0.304	inactive: 0.051	inactive: 0.049	inactive: -0.056	active: 0.428	inactive: -0.005	inactive: -0.109	inactive: -0.016	inactive: -0.167	inactive: -0.085	inactive: 0.089	inactive: -0.282	inactive: -0.005	inactive: 0.05	inactive: 0.257	inactive: 0.166	–
DDX18 (UniProt Q9NVP1)	inactive: 0.035	inactive: 0.214	inactive: -0.002	inactive: 0.082	inactive: -0.125	inactive: 0.011	–	–	inactive: -0.063	inactive: 0.183	–	–	–	inactive: 0.215	–	–	–	inactive: -0.128	inactive: 0.363	inactive: 0.032

A section from the list above, as a working copy:
Target	log2 fold change [1]	log2 fold change (crizotinib)	log2 fold change (duvelisib)	log2 fold change (gandotinib)	log2 fold change [2]	log2 fold change (doramapimod)	log2 fold change (ispinesib)	log2 fold change (bafetinib)	log2 fold change [3]	log2 fold change (dasatinib)	log2 fold change [4]	log2 fold change (tipifarnib)	log2 fold change [5]	log2 fold change [6]	log2 fold change (nilotinib)	log2 fold change [7]	log2 fold change [8]	log2 fold change [9]	log2 fold change (mubritinib)	log2 fold change (tozasertib)
DDB2 (UniProt Q92466)	inactive: -0.037	–	inactive: -0.021	inactive: 0.151	inactive: -0.073	–	inactive: -0.048	inactive: -0.343	inactive: -0.066	inactive: 0.056	inactive: -0.064	inactive: 0.156	inactive: -0.174	inactive: 0.059	inactive: 0.003	inactive: 0.057	inactive: 0.007	inactive: 0.01	inactive: 0.054	inactive: 0.012
DDX39A (UniProt O00148)	inactive: 0.062	inactive: -0.082	–	inactive: -0.009	inactive: 0.05	inactive: -0.069	inactive: -0.064	inactive: 0.001	inactive: 0.014	inactive: -0.134	inactive: -0.007	inactive: 0.079	inactive: 0.079	inactive: 0.002	inactive: -0.017	active: -0.278	inactive: -0.218	inactive: -0.018	inactive: -0.182	–

From the supplement of paper PMC10849652
